Record: PubChem BioAssay AID652243 (Drosophila RNAi Screening Center, 2013)

Screen: 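Fly genes required for human androgen receptor driven transcription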 (primary screen)
System: Drosophila S2R+ cells
Reagents: long dsRNA against Drosophila genes
Time to read-out: 72 h (48 h, then 24 h hormone)
Challenge: synthetic androgen R1881 at 10 nM for 24 h
Measurement: 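Per-well raw luminescence of the androgen-driven firefly reporter and of the Renilla control, two replicates each, without normalisation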
Scale: firefly reporter light: higher = more light from androgen-responsive reporter; Renilla control light: higher = more constitutive control signal (cell number, transfection)
Hit rule: 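Across duplicate plates, a knock-down whose log firefly/Renilla ratio shifted a set fold down or up from the GFP/LacZ control mean was a hit; the downward cut appears as both 1.5 and 3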
Calls: active = hit: reporter lowered or raised; inactive = no hit
The screen tested about 24,000 reagents; shown is a random part of those with a known target gene and a result. Of all reagents, 246 (1%) got an active call. 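Plates not normalised; calls are printed but the firefly/Renilla ratio behind them is not deposited; fold cut for lowering reported inconsistently.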 The raw values are shown without normalisation. No sequences are given here. Not given: the amount of reagent.

svp (seven up) [SID104192691] showed firefly reporter light, replicate 1 = 83374; firefly reporter light, replicate 2 = 48909; Renilla control light, replicate 1 = 1.82e5; Renilla control light, replicate 2 = 1.50e5; inactive.
svp (seven up) [SID104196867] showed firefly reporter light, replicate 1 = 4.91e5; firefly reporter light, replicate 2 = 5.30e5; Renilla control light, replicate 1 = 3.07e6; Renilla control light, replicate 2 = 2.95e6; inactive.
svp (seven up) [SID104206308] showed firefly reporter light, replicate 1 = 2.53e5; firefly reporter light, replicate 2 = 2.39e5; Renilla control light, replicate 1 = 4.28e5; Renilla control light, replicate 2 = 5.36e5; inactive.
After knock-down of NimB5 (Nimrod B5) [SID104181677], the screen gave firefly reporter light, replicate 1 = 2.29e5; firefly reporter light, replicate 2 = 2.41e5; Renilla control light, replicate 1 = 2.00e6; Renilla control light, replicate 2 = 1.68e6; inactive.
With knock-down of Atg101 (Autophagy-related 101) [SID104199812], the screen gave firefly reporter light, replicate 1 = 2.82e5; firefly reporter light, replicate 2 = 1.14e5; Renilla control light, replicate 1 = 1.00e6; Renilla control light, replicate 2 = 4.62e5; inactive.

Targets above whose target name starts with S or s (3):
svp (seven up) [SID104192691] | firefly reporter light, replicate 1 = 83374; firefly reporter light, replicate 2 = 48909; Renilla control light, replicate 1 = 1.82e5; Renilla control light, replicate 2 = 1.50e5; activity call = inactive
svp (seven up) [SID104196867] | firefly reporter light, replicate 1 = 4.91e5; firefly reporter light, replicate 2 = 5.30e5; Renilla control light, replicate 1 = 3.07e6; Renilla control light, replicate 2 = 2.95e6; activity call = inactive
svp (seven up) [SID104206308] | firefly reporter light, replicate 1 = 2.53e5; firefly reporter light, replicate 2 = 2.39e5; Renilla control light, replicate 1 = 4.28e5; Renilla control light, replicate 2 = 5.36e5; activity call = inactive

More entries follow:
Against dpy (dumpy) [SID104180025], the entry reads firefly reporter light, replicate 1 = 1.09e5; firefly reporter light, replicate 2 = 1.07e5; Renilla control light, replicate 1 = 6.17e5; Renilla control light, replicate 2 = 4.59e5; inactive.
Silencing of dpy (dumpy) [SID104180026] came out at: firefly reporter light, replicate 1 = 2.44e5; firefly reporter light, replicate 2 = 1.78e5; Renilla control light, replicate 1 = 5.12e5; Renilla control light, replicate 2 = 4.81e5; inactive.
Silencing of dpy (dumpy) [SID104180264] came out at: firefly reporter light, replicate 1 = 1.67e5; firefly reporter light, replicate 2 = 1.39e5; Renilla control light, replicate 1 = 9.79e5; Renilla control light, replicate 2 = 8.39e5; inactive.
With knock-down of CG11035 [SID104194079], the record shows firefly reporter light, replicate 1 = 45329; firefly reporter light, replicate 2 = 80793; Renilla control light, replicate 1 = 3.30e5; Renilla control light, replicate 2 = 4.48e5; inactive.
Silencing of CG5255 [SID104195546] gave: firefly reporter light, replicate 1 = 1.18e5; firefly reporter light, replicate 2 = 1.24e5; Renilla control light, replicate 1 = 2.22e6; Renilla control light, replicate 2 = 2.43e6; inactive.
Silencing of CG5255 [SID104203452] came out at: firefly reporter light, replicate 1 = 6.58e5; firefly reporter light, replicate 2 = 6.02e5; Renilla control light, replicate 1 = 7.01e5; Renilla control light, replicate 2 = 8.62e5; inactive.
Knock-down of Src64B (Src oncogene at 64B) [SID104188492] gave: firefly reporter light, replicate 1 = 1.07e5; firefly reporter light, replicate 2 = 90047; Renilla control light, replicate 1 = 1.09e6; Renilla control light, replicate 2 = 1.78e6; inactive.
Against Src64B (Src oncogene at 64B) [SID104214195] the deposit lists firefly reporter light, replicate 1 = 6.63e5; firefly reporter light, replicate 2 = 7.39e5; Renilla control light, replicate 1 = 1.51e6; Renilla control light, replicate 2 = 1.17e6; inactive.
Src64B (Src oncogene at 64B) [SID104214196] scored inactive.
